Assay results reported in article PMC10928217.
Results are given in words; binding and its absence hold for the method and conditions named. Binding seen in cells or lysates may run through a third protein. Some results given as binding are weak or reduced against the parent protein; the word gives no strength.

The chains behind the UniProt entries cited, without tags or fusion partners.
UniProt Q13535: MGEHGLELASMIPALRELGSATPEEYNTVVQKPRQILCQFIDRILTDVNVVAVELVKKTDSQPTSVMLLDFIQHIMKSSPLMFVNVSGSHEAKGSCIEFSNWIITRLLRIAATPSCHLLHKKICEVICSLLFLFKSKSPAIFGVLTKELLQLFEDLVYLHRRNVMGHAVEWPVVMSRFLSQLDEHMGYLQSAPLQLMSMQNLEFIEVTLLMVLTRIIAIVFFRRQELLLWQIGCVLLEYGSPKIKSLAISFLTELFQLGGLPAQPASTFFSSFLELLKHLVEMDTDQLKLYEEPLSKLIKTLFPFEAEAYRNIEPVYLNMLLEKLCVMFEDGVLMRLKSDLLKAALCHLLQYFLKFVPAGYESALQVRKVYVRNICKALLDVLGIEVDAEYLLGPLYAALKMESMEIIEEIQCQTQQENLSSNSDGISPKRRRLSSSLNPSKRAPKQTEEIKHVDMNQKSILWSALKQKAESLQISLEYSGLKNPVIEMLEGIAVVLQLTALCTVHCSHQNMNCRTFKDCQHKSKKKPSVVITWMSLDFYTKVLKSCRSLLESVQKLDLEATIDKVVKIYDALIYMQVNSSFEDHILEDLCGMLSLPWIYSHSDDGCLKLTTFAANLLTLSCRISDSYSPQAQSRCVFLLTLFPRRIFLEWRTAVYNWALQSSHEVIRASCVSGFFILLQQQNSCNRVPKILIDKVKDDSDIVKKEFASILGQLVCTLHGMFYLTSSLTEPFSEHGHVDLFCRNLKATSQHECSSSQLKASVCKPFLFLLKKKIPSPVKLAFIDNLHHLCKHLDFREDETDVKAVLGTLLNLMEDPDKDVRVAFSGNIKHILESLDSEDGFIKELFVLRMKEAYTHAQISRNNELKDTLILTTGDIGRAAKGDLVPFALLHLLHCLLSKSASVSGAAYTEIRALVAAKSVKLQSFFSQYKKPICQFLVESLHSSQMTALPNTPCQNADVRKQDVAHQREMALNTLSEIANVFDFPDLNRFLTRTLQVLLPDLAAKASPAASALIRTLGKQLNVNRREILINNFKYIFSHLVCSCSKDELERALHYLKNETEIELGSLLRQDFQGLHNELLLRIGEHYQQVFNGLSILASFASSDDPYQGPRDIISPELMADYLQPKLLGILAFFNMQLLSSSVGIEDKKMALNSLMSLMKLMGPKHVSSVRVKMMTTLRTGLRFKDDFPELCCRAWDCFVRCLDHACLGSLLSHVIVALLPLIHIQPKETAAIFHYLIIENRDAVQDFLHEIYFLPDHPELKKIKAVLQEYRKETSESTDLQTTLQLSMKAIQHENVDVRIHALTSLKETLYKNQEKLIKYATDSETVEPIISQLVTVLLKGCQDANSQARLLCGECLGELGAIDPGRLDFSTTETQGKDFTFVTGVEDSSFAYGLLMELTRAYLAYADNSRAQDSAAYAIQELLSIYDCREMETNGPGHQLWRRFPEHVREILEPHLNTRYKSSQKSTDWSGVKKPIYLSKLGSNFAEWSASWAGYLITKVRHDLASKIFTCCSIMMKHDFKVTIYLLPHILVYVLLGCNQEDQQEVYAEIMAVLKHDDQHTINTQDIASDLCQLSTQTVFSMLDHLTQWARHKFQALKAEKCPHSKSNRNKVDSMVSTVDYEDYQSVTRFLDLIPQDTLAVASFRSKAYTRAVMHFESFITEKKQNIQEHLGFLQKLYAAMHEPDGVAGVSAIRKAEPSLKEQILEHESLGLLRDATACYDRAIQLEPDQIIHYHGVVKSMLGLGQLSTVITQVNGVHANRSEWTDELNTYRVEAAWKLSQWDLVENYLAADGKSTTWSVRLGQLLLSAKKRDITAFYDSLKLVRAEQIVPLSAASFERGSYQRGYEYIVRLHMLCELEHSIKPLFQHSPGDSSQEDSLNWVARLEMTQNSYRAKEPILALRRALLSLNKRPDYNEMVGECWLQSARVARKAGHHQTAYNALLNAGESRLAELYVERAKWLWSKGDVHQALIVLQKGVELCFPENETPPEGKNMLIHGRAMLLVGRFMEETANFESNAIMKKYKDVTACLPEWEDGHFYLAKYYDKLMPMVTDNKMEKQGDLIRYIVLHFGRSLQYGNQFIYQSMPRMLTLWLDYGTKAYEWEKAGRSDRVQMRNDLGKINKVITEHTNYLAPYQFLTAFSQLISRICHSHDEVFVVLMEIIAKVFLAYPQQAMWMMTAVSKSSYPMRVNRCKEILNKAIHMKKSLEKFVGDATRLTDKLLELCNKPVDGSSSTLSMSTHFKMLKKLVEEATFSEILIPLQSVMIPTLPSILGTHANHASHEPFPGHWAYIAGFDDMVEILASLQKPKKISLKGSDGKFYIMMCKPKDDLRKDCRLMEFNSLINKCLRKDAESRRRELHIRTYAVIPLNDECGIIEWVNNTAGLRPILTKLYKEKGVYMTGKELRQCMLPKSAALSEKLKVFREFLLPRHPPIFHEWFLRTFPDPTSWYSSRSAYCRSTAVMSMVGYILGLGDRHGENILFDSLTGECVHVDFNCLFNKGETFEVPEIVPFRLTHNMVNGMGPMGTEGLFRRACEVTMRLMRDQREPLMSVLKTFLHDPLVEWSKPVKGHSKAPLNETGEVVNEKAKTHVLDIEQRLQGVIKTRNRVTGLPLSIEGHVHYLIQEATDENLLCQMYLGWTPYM
UniProt P15927: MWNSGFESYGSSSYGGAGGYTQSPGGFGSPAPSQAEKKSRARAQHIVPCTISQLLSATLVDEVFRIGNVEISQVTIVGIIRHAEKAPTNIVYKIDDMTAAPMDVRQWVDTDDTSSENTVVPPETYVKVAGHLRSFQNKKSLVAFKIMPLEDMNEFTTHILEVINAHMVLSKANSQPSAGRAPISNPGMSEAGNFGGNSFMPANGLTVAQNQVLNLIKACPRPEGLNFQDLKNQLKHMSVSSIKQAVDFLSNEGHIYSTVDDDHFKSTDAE
UniProt D3Z822: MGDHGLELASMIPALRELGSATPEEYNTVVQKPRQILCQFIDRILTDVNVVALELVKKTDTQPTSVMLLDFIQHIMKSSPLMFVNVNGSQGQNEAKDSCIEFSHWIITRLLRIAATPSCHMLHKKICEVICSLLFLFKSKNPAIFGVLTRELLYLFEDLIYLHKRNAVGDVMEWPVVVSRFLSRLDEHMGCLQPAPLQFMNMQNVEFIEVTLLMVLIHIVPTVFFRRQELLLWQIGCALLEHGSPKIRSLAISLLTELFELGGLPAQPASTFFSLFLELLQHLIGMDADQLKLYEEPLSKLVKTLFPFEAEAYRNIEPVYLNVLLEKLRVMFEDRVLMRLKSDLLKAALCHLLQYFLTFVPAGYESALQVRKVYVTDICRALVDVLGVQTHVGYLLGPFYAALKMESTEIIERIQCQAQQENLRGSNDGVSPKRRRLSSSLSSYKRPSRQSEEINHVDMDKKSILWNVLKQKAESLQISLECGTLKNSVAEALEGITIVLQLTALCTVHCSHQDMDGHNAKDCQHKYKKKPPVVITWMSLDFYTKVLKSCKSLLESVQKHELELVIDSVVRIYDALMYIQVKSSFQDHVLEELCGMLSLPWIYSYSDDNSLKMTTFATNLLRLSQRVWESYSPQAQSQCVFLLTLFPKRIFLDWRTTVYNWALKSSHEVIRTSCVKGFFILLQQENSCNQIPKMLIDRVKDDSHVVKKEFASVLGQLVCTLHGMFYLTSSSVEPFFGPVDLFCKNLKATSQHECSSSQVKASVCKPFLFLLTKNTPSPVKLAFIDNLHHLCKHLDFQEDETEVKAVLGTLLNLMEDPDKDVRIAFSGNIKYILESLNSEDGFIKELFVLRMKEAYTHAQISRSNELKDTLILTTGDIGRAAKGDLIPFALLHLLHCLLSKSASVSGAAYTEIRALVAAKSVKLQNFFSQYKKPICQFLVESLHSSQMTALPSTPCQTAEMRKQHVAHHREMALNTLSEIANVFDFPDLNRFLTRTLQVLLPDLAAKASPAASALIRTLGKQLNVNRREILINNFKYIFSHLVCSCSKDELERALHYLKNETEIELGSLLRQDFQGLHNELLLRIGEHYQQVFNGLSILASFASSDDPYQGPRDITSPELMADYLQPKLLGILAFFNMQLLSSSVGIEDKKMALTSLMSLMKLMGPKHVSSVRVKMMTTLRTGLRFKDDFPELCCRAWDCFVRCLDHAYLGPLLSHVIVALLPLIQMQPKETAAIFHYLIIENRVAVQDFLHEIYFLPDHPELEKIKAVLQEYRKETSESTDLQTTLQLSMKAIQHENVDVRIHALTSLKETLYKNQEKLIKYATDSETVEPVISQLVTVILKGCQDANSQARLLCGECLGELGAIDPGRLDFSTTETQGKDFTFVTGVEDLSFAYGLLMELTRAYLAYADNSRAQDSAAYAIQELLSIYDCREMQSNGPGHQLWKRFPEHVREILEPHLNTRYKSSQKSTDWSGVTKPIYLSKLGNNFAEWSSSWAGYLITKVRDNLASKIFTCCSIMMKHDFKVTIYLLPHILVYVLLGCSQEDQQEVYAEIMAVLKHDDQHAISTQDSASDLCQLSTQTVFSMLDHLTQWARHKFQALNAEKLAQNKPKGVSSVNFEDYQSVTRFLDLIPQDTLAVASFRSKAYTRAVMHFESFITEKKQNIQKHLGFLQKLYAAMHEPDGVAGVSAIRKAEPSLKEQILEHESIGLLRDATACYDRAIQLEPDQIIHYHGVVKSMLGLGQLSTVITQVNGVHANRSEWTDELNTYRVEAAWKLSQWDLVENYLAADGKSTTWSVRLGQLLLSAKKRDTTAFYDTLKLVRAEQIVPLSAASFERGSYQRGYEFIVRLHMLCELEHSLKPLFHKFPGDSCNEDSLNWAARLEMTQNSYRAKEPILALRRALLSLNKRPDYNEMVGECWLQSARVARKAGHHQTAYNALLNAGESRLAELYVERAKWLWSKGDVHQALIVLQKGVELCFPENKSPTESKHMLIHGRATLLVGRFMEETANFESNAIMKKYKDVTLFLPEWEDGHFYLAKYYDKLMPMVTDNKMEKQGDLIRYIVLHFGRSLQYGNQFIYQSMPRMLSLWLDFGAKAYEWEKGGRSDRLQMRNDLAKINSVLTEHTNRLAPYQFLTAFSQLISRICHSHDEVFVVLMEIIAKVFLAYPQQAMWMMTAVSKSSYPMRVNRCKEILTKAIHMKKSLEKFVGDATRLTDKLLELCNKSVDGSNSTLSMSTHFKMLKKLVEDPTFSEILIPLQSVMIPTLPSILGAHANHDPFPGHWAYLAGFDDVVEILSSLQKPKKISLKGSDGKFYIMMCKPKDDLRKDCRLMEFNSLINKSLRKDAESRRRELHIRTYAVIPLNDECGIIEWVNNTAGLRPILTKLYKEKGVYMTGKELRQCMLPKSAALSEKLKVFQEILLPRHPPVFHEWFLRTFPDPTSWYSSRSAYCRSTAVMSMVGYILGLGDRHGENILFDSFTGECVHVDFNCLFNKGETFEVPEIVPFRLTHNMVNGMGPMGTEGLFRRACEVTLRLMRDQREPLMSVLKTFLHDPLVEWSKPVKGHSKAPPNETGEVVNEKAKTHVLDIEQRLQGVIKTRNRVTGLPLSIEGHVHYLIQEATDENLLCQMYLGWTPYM

B1: Nucleolar protein 12 (NOL12), human, in WERI-Rb1 cells (protein, UniProt Q9UGY1 1-213)
chain: MGRNKKKKRDGDDRRPRLVLSFDEEKRREYLTGFHKRKVERKKAAIEEIKQRLKEEQRKLREERHQEYLKMLAEREEALEEADELDRLVTAKTESVQYDHPNHTVTVTTISDLDLSGARLLGLTPPEGGAGDRSEEEASSTEKPTKALPRKSRDPLLSQRISSLTASLHAHSRKKVKRKHPRRAQDSKKPPRAPRTSKAQRRRLTGKARHSGE
B2: Nucleolar protein 12 (NOL12), rat, in adult retina (protein, UniProt Q5D1Z3 1-216)
chain: MGRNKKKKRDGDDRRPRLILNFDEEKRREYLTGFHKRKVERKKAAIEEIKQRLKQEQKKLREERHQEYLKMLAEREEALEEADELERLVTAKTESVQYDHPNHTVTVTTVSDLDLSGARLLGLPLPEQGDQDGSQEEEVSSMEKPTKALPKKSKDPLLSQRISSLTATLHAHSRKKVKRKHPRRAQDSTKKPPSATRTSKTQRRRRMTGKARHNGE

Experiments:
[1] = molecular target: ATR serine/threonine kinase (ATR), human, in WERI-Rb1 cells (human (endogenous in WERI-Rb1)) (UniProt Q13535); assay: co-IP; WERI-Rb1 cell lysate (50 mM Tris-HCl, 50 mM NaCl, 1 mM MgCl2, 1 mM EDTA, 1% Triton X, 10% glycerol, pH 7.4); rabbit anti-NOL12 or rabbit anti-ATR, 4 °C overnight, Protein A + G beads; wash 150 mM NaCl, 0.1% NP-40; immunoblot
[2] = molecular target: RPA32, human, in WERI-Rb1 cells (human (endogenous in WERI-Rb1)) (UniProt P15927); assay: as above
[3] = molecular target: ATR serine/threonine kinase (ATR), rat, in adult retina (rat (endogenous in adult rat retina)) (UniProt D3Z822); assay: co-IP; adult rat retina lysate (50 mM Tris-HCl, 50 mM NaCl, 1 mM MgCl2, 1 mM EDTA, 1% Triton X, 10% glycerol, pH 7.4); rabbit anti-NOL12 or rabbit anti-ATR, 4 °C overnight, Protein A + G beads; wash 150 mM NaCl, 0.1% NP-40; immunoblot

| Binder | binding [1] | binding [2] | binding [3] |
| --- | --- | --- | --- |
| B1 | binds | binds |  |
| B2 |  |  | binds |
